{"source": "the supplement of paper PMC4604168 (melanoma cell lines)", "note": "This is one part of the list. Repeats are few or missing, and single values can be far off.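 Imaging used 1,536-well plates; nuclei positive for cleaved PARP by antibody were divided by total DNA-stained nuclei to yield the apoptosis fraction. Doses for screening kept most cells viable, and cell lines differ markedly in resting and induced cleaved-PARP levels.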", "data": [{"test_system": "COLO800", "assay": "cleaved PARP positive nuclei fraction relative to DMSO control; melanoma cells; higher = more apoptosis", "conditions": "library dose: low library concentration; 72 h", "units": {"cleaved PARP positive nuclei fraction": "%"}, "values": [{"compound": "Cn1sc(=O)n(Cc2ccccc2)c1=O", "note": "+ CCN(CC)CCCCNc1ncc2cc(-c3cc(OC)cc(OC)c3)c(NC(=O)NC(C)(C)C)nc2n1 [PD173074] (first compound 0.4 µM, partner dose 0.1 µM)", "cleaved PARP positive nuclei fraction": 74.5}, {"compound": "CCN(CC)CCNC(=O)c1c(C)[nH]c(/C=C2\\C(=O)Nc3ccc(F)cc32)c1C", "note": "[sunitinib] + CCCCCCCCCCCC1=C(O)C(=O)C=C(O)C1=O [Embelin] (first compound 0.4 µM, partner dose 1.2 µM)", "cleaved PARP positive nuclei fraction": 90.4}, {"compound": "CN(c1ncccc1CNc1nc(Nc2ccc3c(c2)CC(=O)N3)ncc1C(F)(F)F)S(C)(=O)=O", "note": "+ COc1ccc(-c2ccc3c(N4CCOCC4)nc(N4C[C@@H](C)O[C@@H](C)C4)nc3n2)cc1CO [KU0063794] (first compound 0.08 µM, partner dose 0.02 µM)", "cleaved PARP positive nuclei fraction": 23.7}, {"compound": "CCN(CC)CCNC(=O)c1c(C)[nH]c(/C=C2\\C(=O)Nc3ccc(F)cc32)c1C", "note": "[sunitinib] + CCN(CC)CCCCNc1ncc2cc(-c3cc(OC)cc(OC)c3)c(NC(=O)NC(C)(C)C)nc2n1 [PD173074] (first compound 0.4 µM, partner dose 0.1 µM)", "cleaved PARP positive nuclei fraction": 94.7}, {"compound": "Cn1cnc2c(F)c(Nc3ccc(Br)cc3Cl)c(C(=O)NOCCO)cc21", "note": "[selumetinib] + O=C(Nc1ccccc1)c1cc([N+](=O)[O-])ccc1Cl [GW9662] (first compound 0.015 µM, partner dose 2 µM)", "cleaved PARP positive nuclei fraction": 97.6}, {"compound": "C[C@@H](N)c1ccc(C(=O)Nc2ccnc3[nH]ccc23)cc1", "note": "+ COc1ccc2c(c1)CCC1C2CCC2(C)C(NCCCCCCN3C(=O)C=CC3=O)CCC12 [U73122] (first compound 0.4 µM, partner dose 0.4 µM)", "cleaved PARP positive nuclei fraction": 96.1}]}]}
